US5166321A, “Cecropin polypetides with activity against Gram-positive and Gram-negative bacteria” (International Genetic Engineering, Inc., priority 1987, dated 1992)
Part of at least one peptide drawing is inferred or uncertain, most often the ends. Numbered stars: 1 amine (or outer) side, 2 acyl side, 3 side chain; on linkers, the order of the positions; unused ones are H or OH. Square brackets hold non-standard residues; d marks the D form. Peptide text beside a SMILES is read from it. Ethylenediamine = C(CN[*:2])N[*:1]; hSer = N[C@@H](CCO)C(=O)O

What was measured:
[1] = tested on: Micrococcus luteus; assay: Agar-well halo assay of bactericidal activity; format: cell-based
Procedure: (§1) The assay for antimicrobial activity was performed by pouring 10 ml of agar in TYE media containing about 10^7 viable cells of the test organisms. Wells, 2 mm in diameter, were punched in the agar plates. Aliquots of the modified cecropin-like polypeptides (2-12 ul) were then added to each well. The diameter of the inhibition zones, or haloes, around the wells, were measured after overnight incubation at 25° C.
(§2) The activities of various cecropin-like polypeptides were tested against both Gram-negative and Gram-positive organisms. Anti-microbial activity against the Gram-negative organisms remained unaltered for most of the Gram-negative bacteria (except, i.e., Serratia marcescens) as shown in Table 1. […] To determine a standard of halo formation, the various modified cecropin-like polypeptides were also applied to E. coli D21. Activity shown in Tables 1 and 2 is expressed as the ratio of the radius of the cleared halo for each organism versus that for E. coli D21.
(§3) The cecropin-like polypeptide modified at the carboxy terminus with ethylenediamine and naturally occurring cecropin A were tested against a variety of organisms. The relative activities of the antimicrobial agents were expressed per nanomole of polypeptide applied to each well (Table 3).

[2] = tested on: Bacillus megaterium; assay: Agar-well halo assay of bactericidal activity; format: cell-based
Procedure: as §1, §2, §3

[3] = tested on: Streptococcus faecalis; assay: Agar-well halo assay of bactericidal activity; format: cell-based
Procedure: as §1, §2, §3

[4] = tested on: Escherichia coli; assay: Agar-well halo assay, activity per nanomole; format: cell-based; conditions: per nanomole of polypeptide applied to each well
Procedure: as §1, §3

[5] = tested on: B. subtilis; assay: Agar-well halo assay of bactericidal activity; format: cell-based, Bacillus subtilis; conditions: overnight incubation at 25° C.
Procedure: as §1, §2, §3

For `CC[C@H](C)[C@H](NC(=O)CNC(=O)[C@H](CC(=O)O)NC(=O)[C@H](CCCNC(=N)N)NC(=O)[C@@H](NC(=O)[C@H](CC(N)=O)NC(=O)[C@H](CCC(N)=O)NC(=O)CNC(=O)[C@@H](NC(=O)[C@H](CCCCN)NC(=O)[C@H](CCC(=O)O)NC(=O)[C@@H](NC(=O)[C@H](CCCCN)NC(=O)[C@H](CCCCN)NC(=O)[C@H](Cc1ccccc1)NC(=O)[C@H](CC(C)C)NC(=O)[C@H](CCCCN)NC(=O)[C@H](Cc1c[nH]c2ccccc12)NC(=O)[C@@H](N)CCCCN)[C@@H](C)CC)C(C)C)[C@@H](C)CC)C(=O)N[C@H](C(=O)N[C@@H](CCCCN)C(=O)N[C@@H](C)C(=O)NCC(=O)N1CCC[C@H]1C(=O)N[C@@H](C)C(=O)N[C@H](C(=O)N[C@@H](C)C(=O)N[C@H](C(=O)N[C@H](C(=O)NCC(=O)N[C@@H](CCC(N)=O)C(=O)N[C@@H](C)C(=O)N[C@H](C(=O)N[C@@H](CCC(N)=O)C(=O)N[C@H](C(=O)N[C@@H](C)C(=O)N[C@@H](CCCCN)C(=O)N[C@@H](CCO)C(=O)NCCN)[C@@H](C)CC)[C@@H](C)O)C(C)C)C(C)C)C(C)C)[C@@H](C)CC` [CA-HS-NH-Et-NH2] (H-KWKLFKKIEKVGQNIRDGIIKAGPAVAVVGQATQIAK[hSer]-Ethylenediamine), the “Relative activity (ratio of the radius of the cleared halo versus that for E. coli D21)” value ([1]; M. luteus, overnight incubation at 25° C.) was 1.2 ± 0.05, the “Activity per Nanomole (radius of the inhibitory ring)” value ([1]; Micrococcus luteus, per nanomole of polypeptide applied to each well) was 12.0 millimeters and the “Relative activity (ratio of the radius of the cleared halo versus that for E. coli D21)” value ([2]; B. megaterium, overnight incubation at 25° C.) was 0.7. The “Activity per Nanomole (radius of the inhibitory ring)” value ([2]; Bacillus megaterium, per nanomole of polypeptide applied to each well) was 6.9 millimeters, the “Relative activity (ratio of the radius of the cleared halo versus that for E. coli D21)” value ([3]; S. faecalis, overnight incubation at 25° C.) was 0.35 and the “Activity per Nanomole (radius of the inhibitory ring)” value ([3]; Streptococcus faecalis, per nanomole of polypeptide applied to each well) was 1.2 millimeters. For the same compound, the “Activity per Nanomole (radius of the inhibitory ring)” value [4] was 9.8 millimeters and the “Relative activity (ratio of the radius of the cleared halo versus that for E. coli D21)” value [5] was 0.4 ± 0.1.
